For part of these data: Some peptides are written in HELM: one residue between dots, names in brackets for other building blocks, links after the first $. [ ]: non-standard residue; d: D form. The star is where a group is joined. NMeF = CN[C@@H](Cc1ccccc1)C(=O)O; dCha = N[C@H](CC1CCCCC1)C(=O)O; Boc = CC(C)(C)OC(=O)*

The nature of data set [1]: general procedure: Boc solid-phase peptide synthesis; Boc-DArginine(N-guanidino-Tos)-Merrifield resin. As to conditions: for cyclisation yield: cyclisation step; for isolated mass / isolated yield: whole synthesis.
A short description of the next data set: peptide synthesis. As to conditions: late stage modification step.

Substance “PEPTIDE1{[MePhe].K.P.[D-Cha].F.[D-Phg]}$$$$V2.0” showed a step yield in data set [1] (coupling step) of 38% yield. On to “{(2R/S)-2-Amino-5-phenylpentanoyl}**-Lysyl-Prolyl-{(2R)-2-Amino-3-cyclohexylpropanoyl}-{(2S)-2-Amino-3-cyclohexylpropanoyl}-DArginyl**”, for which, in data set [1], the cyclisation yield is given as 29%. As for “(N-Methyl)Phenylalanyl-{Lysyl(N-epsilon-[N-(1,3-Diaminopropyl) carbonyl])}-Prolyl-{(2R)-2-Amino-3-cyclohexylpropanoyl}-Phenylalanyl-DArginyl-OH”, in data set [1] (scale ca 0.25 meq), the isolated mass came to 20 mg and the isolated yield is recorded as 7% yield. On to “(N-Methyl)Phenylalanyl-{(2S)-2-Amino-6-benzamidinylhexanoyl}-Prolyl-{(2R)-2-Amino-3-cyclohexylpropanoyl}-Phenylalanyl-DArginyl-OH”, for which the step yield in data set [1] (late stage modification step) came to 26% yield. Consider Boc-[NMeF]K(Boc)P[dCha]-OH, for which, in “peptide synthesis”, the step yield is on record as 83% yield. In turn, Boc-[NMeF]K(Boc)P[dCha]F-OH displayed a step yield in “peptide synthesis” of 99% yield.

The substance “(N-Methyl)Phenylalanyl-Lysyl-Prolyl-{(2R)-2-Amino-3-cyclohexylpropanoyl}-{(2S)-2-Amino-3-cyclohexylpropanoyl}-DArginyl-NHBenzyl” returned an isolated yield in data set [1] (scale of the general procedure 0.4-1.0 g resin) of 26%. Consider “(N-Methyl)Phenylalanyl-{(2S)-2-Amino-6-(N^G' -phenylguanidinyl)-hexanoyl}-Prolyl-{(2R)-2-Amino-3-cyclohexylpropanoyl}-Phenylalanyl-DArginyl-OH”, for which the step yield in data set [1] (late stage modification step) was 0.1% yield.

“(N-Methyl)Phenylalanyl-Lysyl-Prolyl-{(2R)-2-Amino-3-cyclohexylpropanoyl}-{(2S)-2-Amino-3-cyclohexylpropanoyl}-{(R) -Phenylglycinyl}-OH” gave a step yield in data set [1] (coupling step) of 41% yield. In data set [1], “H-Phenylalanyl-Lysyl(epsilon-N**)-Prolyl-{(2R)-2-Amino-3-cyclehexylpropanoyl}-{(2S)-2-Amino-3-cyclohexylpropanoyl}-DArginyl-{(2S)-2-Amino-3-cyclohexylpropanoyl}**” had a cyclisation yield of 5%. As for “(N-Methyl)Phenylalanyl-Lysyl-Prolyl-{(2R)-2-Amino-3-cyclohexylpropanoyl}-{(2S)-2-Amino-3-cyclohexylpropanoyl}-DArginyl-NH2”, the step yield in data set [1] (late stage modification step) is recorded as 64% yield. Still for that read-out and setting: next, “(N-Methyl)Phenylalanyl-Lysyl-Prolyl-{(2R)-2-Amino-3-cyclohexylpropanoyl}-{(2S)-2-Amino-3-cyclohexylpropanoyl}-DArginyl-NHNH2”: 67% yield. As for “(N-Methyl)Phenylalanyl-{(2S)-2-Amino-6-acetamidinylhexanoyl}-Prolyl-{(2R)-2-Amino-3-cyclohexylpropanoyl}-Phenylalanyl-DArginyl-OH”, in data set [1] (scale ca 0.25 meq), the isolated mass was 131 mg and the isolated yield is given as 46% yield.

For the origin of these results see US5386011A (priority 1990, dated 1995).
